The other results are listed elsewhere or left out.
What was measured:
Test in all cases: log2 fold change, soluble protein after heating vs DMSO (PISA); higher = thermal stabilisation; K562 lysate, 10 uM; active = over 0.2 and 3.5 SD of the protein, either way, in both replicates (recomputed)
erlotinib = compound: C#Cc1cccc(Nc2ncnc3cc(OCCOC)c(OCCOC)cc23)c1 [erlotinib]
Method in brief: (§1)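 Following dounce homogenisation of K562 pellets in PBS pH 7.4 with 1 mM MgCl2, crude extract at 1 mg/mL protein was incubated for 30 min with 10 μM compound. Aliquots were then heated for 3 min over 48°C-58°C and pooled, NP-40 was added to 0.5% at 4°C, and soluble protein was recovered as the supernatant at 21,000xg for 90 min. Channel-sum-equalised TMTpro 16plex LC-MS/MS quantified this protein. Each value, from duplicates, is a log-two fold change in thermal stability relative to solvent controls.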

Chains of the proteins cited; added tags and fusions are not shown. Lines headed by an entry give the natural chain unless they say otherwise; changes in a name come on top.
UniProt Q13136: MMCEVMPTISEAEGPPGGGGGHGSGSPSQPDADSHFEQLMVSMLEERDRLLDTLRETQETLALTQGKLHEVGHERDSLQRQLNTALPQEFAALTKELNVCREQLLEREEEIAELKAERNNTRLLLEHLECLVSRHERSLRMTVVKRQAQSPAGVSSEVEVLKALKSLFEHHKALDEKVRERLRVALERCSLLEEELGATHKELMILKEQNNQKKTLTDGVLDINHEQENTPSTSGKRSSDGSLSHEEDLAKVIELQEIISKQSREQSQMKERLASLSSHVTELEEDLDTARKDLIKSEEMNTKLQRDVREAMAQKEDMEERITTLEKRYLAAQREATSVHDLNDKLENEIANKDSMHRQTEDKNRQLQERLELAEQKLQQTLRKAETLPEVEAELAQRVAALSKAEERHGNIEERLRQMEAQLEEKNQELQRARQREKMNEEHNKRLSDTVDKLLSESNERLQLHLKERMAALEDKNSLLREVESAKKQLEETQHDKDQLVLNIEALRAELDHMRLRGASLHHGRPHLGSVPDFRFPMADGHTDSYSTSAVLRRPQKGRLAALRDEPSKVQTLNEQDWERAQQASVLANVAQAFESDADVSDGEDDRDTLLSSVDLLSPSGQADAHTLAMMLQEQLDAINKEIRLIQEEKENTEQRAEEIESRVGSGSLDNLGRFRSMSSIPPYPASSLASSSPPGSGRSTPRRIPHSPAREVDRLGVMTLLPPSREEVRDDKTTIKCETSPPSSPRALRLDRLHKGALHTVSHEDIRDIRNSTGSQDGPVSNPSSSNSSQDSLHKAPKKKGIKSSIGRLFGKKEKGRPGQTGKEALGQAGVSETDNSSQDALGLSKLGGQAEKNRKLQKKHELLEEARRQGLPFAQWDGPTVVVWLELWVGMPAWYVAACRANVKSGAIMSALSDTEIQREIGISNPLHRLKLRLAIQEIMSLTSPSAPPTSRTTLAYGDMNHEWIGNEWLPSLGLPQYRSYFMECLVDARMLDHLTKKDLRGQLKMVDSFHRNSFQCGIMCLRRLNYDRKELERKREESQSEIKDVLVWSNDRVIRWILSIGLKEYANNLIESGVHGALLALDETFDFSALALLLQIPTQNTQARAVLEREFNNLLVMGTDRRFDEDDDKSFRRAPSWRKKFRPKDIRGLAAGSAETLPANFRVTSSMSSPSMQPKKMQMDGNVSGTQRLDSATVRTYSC
UniProt Q8NBL1: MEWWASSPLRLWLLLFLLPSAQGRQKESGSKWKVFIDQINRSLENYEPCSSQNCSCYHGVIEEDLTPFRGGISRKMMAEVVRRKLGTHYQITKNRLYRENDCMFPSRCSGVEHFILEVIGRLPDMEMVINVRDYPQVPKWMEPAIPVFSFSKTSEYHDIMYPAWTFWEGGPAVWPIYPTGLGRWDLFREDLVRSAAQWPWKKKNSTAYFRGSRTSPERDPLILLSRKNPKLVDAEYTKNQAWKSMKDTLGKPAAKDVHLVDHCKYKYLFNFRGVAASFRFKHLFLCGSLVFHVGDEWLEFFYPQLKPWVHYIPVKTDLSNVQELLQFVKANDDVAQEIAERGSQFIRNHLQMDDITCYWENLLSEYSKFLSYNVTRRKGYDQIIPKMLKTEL
UniProt O75817: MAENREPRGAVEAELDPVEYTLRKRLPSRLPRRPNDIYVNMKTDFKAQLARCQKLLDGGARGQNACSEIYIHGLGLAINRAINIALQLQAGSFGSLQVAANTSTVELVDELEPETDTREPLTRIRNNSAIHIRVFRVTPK
UniProt P0DPB6, whole entry, looked up: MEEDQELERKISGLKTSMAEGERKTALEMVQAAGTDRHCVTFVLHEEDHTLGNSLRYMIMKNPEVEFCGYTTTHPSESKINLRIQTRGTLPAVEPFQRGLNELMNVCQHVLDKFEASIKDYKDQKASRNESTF
UniProt Q9UIW2: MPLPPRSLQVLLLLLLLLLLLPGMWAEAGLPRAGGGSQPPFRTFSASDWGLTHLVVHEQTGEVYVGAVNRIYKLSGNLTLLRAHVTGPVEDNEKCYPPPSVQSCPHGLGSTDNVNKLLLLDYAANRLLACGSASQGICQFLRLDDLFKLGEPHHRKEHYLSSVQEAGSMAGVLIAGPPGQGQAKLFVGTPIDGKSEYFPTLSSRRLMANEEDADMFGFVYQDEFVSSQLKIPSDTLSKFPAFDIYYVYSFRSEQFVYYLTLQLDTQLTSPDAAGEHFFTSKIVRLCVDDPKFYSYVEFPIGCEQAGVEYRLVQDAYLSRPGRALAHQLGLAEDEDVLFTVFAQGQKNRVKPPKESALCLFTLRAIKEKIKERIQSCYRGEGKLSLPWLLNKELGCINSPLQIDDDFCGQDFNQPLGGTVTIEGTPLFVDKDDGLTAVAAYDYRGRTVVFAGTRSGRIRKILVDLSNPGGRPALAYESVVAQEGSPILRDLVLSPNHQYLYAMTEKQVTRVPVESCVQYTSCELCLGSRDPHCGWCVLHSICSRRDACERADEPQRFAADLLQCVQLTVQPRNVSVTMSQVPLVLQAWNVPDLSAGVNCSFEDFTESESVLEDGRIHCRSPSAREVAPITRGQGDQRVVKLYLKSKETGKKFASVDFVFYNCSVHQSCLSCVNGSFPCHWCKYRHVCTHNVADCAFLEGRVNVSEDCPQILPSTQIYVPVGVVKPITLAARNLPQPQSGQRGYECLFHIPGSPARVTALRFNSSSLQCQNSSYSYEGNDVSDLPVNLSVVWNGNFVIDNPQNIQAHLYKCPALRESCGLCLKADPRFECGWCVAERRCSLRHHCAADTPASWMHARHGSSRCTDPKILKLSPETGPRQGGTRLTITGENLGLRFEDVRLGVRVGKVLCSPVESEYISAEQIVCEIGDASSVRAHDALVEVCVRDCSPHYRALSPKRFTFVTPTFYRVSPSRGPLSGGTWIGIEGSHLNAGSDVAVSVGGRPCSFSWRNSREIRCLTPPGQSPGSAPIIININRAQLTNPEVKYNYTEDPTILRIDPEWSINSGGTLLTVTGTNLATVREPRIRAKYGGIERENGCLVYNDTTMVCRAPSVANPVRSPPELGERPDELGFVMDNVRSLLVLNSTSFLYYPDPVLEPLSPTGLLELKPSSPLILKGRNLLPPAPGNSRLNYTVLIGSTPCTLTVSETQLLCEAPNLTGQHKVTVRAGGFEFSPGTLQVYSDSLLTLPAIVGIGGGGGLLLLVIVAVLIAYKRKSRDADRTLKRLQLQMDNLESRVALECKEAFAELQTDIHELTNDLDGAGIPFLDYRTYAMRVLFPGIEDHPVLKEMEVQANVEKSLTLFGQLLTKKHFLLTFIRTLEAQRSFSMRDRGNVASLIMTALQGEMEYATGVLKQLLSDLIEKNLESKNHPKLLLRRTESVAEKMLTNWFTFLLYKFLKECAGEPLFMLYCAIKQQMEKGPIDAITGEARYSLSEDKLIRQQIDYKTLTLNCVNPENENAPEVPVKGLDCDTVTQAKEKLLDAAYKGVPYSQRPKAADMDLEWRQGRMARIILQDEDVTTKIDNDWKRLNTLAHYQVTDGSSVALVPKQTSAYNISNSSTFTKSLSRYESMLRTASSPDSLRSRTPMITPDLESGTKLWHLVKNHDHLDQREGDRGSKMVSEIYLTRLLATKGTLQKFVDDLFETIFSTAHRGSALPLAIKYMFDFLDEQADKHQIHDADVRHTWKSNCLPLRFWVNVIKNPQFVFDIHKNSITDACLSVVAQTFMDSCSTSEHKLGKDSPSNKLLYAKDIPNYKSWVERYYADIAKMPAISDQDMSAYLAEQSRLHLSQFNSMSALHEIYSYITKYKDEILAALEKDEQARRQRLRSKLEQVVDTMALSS
UniProt Q9BUI4: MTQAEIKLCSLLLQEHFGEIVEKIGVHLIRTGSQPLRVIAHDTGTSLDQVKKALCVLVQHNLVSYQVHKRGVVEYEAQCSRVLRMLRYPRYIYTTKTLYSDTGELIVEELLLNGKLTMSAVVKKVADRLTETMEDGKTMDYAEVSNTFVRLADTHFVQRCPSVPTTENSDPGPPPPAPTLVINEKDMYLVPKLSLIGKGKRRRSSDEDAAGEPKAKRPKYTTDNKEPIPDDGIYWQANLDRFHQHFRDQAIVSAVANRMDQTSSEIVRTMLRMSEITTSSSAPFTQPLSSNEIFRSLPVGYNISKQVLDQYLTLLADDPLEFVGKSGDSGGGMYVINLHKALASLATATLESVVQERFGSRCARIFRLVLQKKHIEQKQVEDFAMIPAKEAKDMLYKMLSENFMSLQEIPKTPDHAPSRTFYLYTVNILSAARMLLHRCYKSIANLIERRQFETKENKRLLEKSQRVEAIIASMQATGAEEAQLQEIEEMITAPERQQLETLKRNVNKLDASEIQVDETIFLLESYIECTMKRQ
UniProt Q8N490: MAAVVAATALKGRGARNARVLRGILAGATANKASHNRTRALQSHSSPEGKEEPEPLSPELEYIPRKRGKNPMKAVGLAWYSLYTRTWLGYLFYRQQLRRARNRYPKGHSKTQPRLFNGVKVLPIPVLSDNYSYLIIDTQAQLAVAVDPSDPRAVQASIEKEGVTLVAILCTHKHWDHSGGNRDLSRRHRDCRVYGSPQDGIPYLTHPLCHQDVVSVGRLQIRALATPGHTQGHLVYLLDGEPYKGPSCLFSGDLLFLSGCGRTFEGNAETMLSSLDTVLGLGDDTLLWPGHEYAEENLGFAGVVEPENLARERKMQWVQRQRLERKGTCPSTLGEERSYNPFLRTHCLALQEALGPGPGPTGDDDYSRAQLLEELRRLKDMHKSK
UniProt Q9NQ55: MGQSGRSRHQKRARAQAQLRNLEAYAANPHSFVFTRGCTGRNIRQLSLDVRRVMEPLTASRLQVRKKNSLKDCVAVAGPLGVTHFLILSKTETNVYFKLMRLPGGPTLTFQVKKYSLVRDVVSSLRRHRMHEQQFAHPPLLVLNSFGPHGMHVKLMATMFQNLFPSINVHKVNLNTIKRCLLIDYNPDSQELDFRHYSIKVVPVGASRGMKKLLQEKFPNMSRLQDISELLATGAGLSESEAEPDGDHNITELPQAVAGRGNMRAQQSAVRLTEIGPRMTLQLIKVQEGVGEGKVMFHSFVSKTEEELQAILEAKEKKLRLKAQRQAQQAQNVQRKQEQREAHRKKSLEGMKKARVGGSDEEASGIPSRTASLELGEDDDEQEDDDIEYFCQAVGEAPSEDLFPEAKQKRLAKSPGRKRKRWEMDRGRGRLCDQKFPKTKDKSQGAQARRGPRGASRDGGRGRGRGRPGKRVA
UniProt O75439: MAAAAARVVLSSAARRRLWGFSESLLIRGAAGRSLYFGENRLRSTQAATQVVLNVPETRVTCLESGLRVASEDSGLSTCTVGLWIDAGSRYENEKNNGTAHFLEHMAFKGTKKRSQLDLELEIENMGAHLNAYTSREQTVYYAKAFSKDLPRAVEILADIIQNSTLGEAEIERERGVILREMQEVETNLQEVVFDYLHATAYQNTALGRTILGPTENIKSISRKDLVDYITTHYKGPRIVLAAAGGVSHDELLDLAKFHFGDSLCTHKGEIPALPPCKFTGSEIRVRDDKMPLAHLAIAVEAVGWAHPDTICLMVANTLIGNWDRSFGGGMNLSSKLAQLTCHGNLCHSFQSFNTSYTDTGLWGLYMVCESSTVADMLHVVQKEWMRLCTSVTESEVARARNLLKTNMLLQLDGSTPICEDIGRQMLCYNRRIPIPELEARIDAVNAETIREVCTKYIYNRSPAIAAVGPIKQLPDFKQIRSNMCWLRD
UniProt O15305: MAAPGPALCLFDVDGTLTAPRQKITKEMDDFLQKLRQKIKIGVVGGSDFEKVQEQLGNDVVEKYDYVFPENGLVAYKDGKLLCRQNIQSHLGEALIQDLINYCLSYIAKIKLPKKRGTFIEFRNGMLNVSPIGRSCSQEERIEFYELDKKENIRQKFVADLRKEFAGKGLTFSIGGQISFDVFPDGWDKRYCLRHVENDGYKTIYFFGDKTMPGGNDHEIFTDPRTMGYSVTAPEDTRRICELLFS

[1] = compound: C/C(=N\NC(=O)C1=CC(=CC=C1)S(=O)(=O)N2CCOCC2)/C3=C(C=CC(=C3)Cl)O
Method in brief: as §1

[2] = compound: C1=CC(=CC=C1C2=NC3=C(N2)C=C(C=C3)C(=O)N)OC4=CC=C(C=C4)Cl
Method in brief: as §1

[3] = compound: C1=CC2=C(C=CC(=C2)/C=C\3/C(=O)NC(=NCC4=CC=CS4)S3)N=C1
Method in brief: as §1

[4] = compound: C1=CC2=NC=CN=C2C=C1/C=C/3\C(=O)NC(=O)S3
Method in brief: as §1

[5] = compound: C1=CC=C(C=C1)C2=NC(=C(N2)C3=CC=NC=C3)C4=CC(=C(C=C4)Cl)O
Method in brief: as §1

[6] = compound: C1=CC=C2C(=C1)C3=NNC4=CC=CC(=C43)C2=O
Method in brief: as §1

[7] = compound: C1CCN(C1)C(=O)NC2=CC=CC(=C2)NC3=NC=C(C(=N3)NCCC4=CN=CN4)Br
Method in brief: as §1

[8] = compound: C1CN(CCC1(CC2=CC=C(C=C2)Cl)N)C3=NC=NC4=C3C=CN4
Method in brief: as §1

IRAK-1-4 Inhibitor I = compound: C1COCCN1CCN2C3=CC=CC=C3N=C2NC(=O)C4=CC(=CC=C4)[N+](=O)[O-] [IRAK-1-4 Inhibitor I]
Method in brief: as §1

ibrutinib = compound: C=CC(=O)N1CCC[C@@H](n2nc(-c3ccc(Oc4ccccc4)cc3)c3c(N)ncnc32)C1 [ibrutinib]
Method in brief: as §1

[9] = compound: CC(=O)c1cnc2ccc(-c3cc(Cl)c(O)c(Cl)c3)nc2c1N[C@H]1CC[C@H](CN(C)C)CC1
Method in brief: as §1

ralimetinib = compound: CC(C)(C)Cn1c(N)nc2ccc(-c3[nH]c(C(C)(C)C)nc3-c3ccc(F)cc3)nc21 [ralimetinib]
Method in brief: as §1

[10] = compound: CC(C)(O)CC(=O)NCCn1ccc2ncnc(Nc3ccc(Oc4cccc(C(F)(F)F)c4)c(Cl)c3)c21
Method in brief: as §1

[11] = compound: CC(C)C1=C2N=C(C=C(N2N=C1)NCC3=CC=CC=C3)NCCCCCCN
Method in brief: as §1

[12] = compound: CC1=C(C(CC(=O)N1)C2=CC=C(C=C2)C(F)(F)F)C(=O)NC3=C(C=C4C(=C3)C=NN4)F
Method in brief: as §1

[13] = compound: CC1=C(C2=C(C=C1)C(=O)C3=CC=CC=C3N2CCCN)C
Method in brief: as §1

[14] = compound: CC1=C(C=C(C=C1)NC(=O)C2=CC(=CC=C2)C(C)(C)C#N)NC3=CC4=C(C=C3)N=CN(C4=O)C
Method in brief: as §1

[15] = compound: CC1=C(C=C(C=C1)NC(=O)C2=CC(=CC=C2)N(C)C)NC(=O)C3=CC=C(C=C3)O
Method in brief: as §1

[16] = compound: CC1=CC=C(C=C1)SC2=C3C=C(SC3=CN=C2)C(=O)N
Method in brief: as §1

Measured: log2 fold change

PPFIA1 (UniProt Q13136)
inactive: erlotinib -0.035 | [1] 0.002 | [2] 0.02 | [3] 0.011 | [4] -0.017 | [5] -0.035 | [6] -0.048 | [7] 0.036 | [8] 0.015 | IRAK-1-4 Inhibitor I -0.021 | ibrutinib -0.012 | [9] 0.015 | ralimetinib 0.03 | [10] -0.004 | [11] 0.016 | [12] -0.002 | [13] -0.121 | [14] -0.052 | [15] -0.012 | [16] -0.038

POGLUT1 (UniProt Q8NBL1)
inactive: erlotinib -0.009 | [1] 0.005 | [2] -0.005 | [3] -0.001 | [4] -0.023 | [5] -0.043 | [6] -0.038 | [7] -0.027 | [8] -0.015 | IRAK-1-4 Inhibitor I -0.064 | ibrutinib 0.002 | [9] 0.005 | ralimetinib 0.042 | [10] 0.028 | [11] -0.023 | [12] 0.008 | [13] 0.05 | [14] -0.026 | [15] -0.001 | [16] 0.001

POP7 (UniProt O75817)
inactive: erlotinib 0.024 | [1] -0.091 | [2] 0.075 | [3] 0.017 | [4] -0.006 | [5] -0.017 | [6] 0.031 | [7] 0.03 | [8] 0.042 | IRAK-1-4 Inhibitor I 0.037 | ibrutinib 0.111 | [9] -0.011 | ralimetinib 0.002 | [10] 0.042 | [11] 0.097 | [12] 0.133 | [13] -0.006 | [14] 0.005 | [15] -0.01 | [16] -0.042

POLR1D (UniProt P0DPB6)
inactive: erlotinib 0.029 | [1] 0.053 | [2] 0.037 | [3] 0.004 | [4] -0.08 | [5] -0.019 | [6] -0.021 | [7] -0.037 | [8] 0.092 | IRAK-1-4 Inhibitor I 0.018 | ibrutinib 0.027 | [9] 0.031 | ralimetinib 0.088 | [10] -0.015 | [11] 0.019 | [12] -0.031 | [13] -0.012 | [14] 0.034 | [15] 0.04 | [16] 0.011

POGK (UniProt Q9P215)
inactive: erlotinib 0.052 | [1] 0.053 | [2] 0.034 | [3] -0.059 | [4] -0.023 | [5] 0.104 | [6] -0.03 | [7] 0 | [8] 0.022 | IRAK-1-4 Inhibitor I 0.025 | ibrutinib 0.051 | [9] -0.012 | ralimetinib 0.04 | [10] -0.026 | [11] -0.012 | [12] 0.018 | [13] 0.04 | [14] 0.01 | [15] -0.047 | [16] 0.027

PLXNA1 (UniProt Q9UIW2)
inactive: erlotinib -0.026 | [1] -0.012 | [2] -0.034 | [3] -0.01 | [4] 0.007 | [5] -0.013 | [6] -0.021 | [7] 0.012 | [8] 0.032 | IRAK-1-4 Inhibitor I 0.007 | ibrutinib 0.004 | [9] 0.017 | ralimetinib 0.023 | [10] -0.019 | [11] -0.042 | [12] 0.002 | [13] -0.01 | [14] 0.008 | [15] 0.005 | [16] -0.001

POLR3C (UniProt Q9BUI4)
inactive: erlotinib 0.006 | [1] 0.049 | [2] 0.01 | [3] -0.004 | [4] -0.011 | [5] 0.006 | [6] 0.055 | [7] -0.037 | [8] 0.005 | IRAK-1-4 Inhibitor I -0.031 | ibrutinib 0 | [9] -0.001 | ralimetinib 0.041 | [10] -0.002 | [11] 0.003 | [12] 0.015 | [13] -0.005 | [14] 0.011 | [15] -0.004 | [16] -0.011

PNKD isoform 2 (UniProt Q8N490)
inactive: erlotinib -0.003 | [1] -0.072 | [2] 0.143 | [3] 0.036 | [4] -0.026 | [5] -0.062 | [6] 0.038 | [7] -0.082 | [8] 0.042 | IRAK-1-4 Inhibitor I 0 | ibrutinib 0.126 | [9] 0.005 | ralimetinib 0.03 | [10] -0.003 | [11] -0.045 | [12] -0.069 | [13] -0.064 | [14] -0.059 | [15] 0.066 | [16] -0.107

PNKD (UniProt Q8N490)
inactive: erlotinib -0.005 | [1] -0.102 | [2] 0.05 | [3] 0.116 | [4] 0.052 | [5] -0.005 | [6] -0.211 | [7] 0.01 | [8] 0.159 | IRAK-1-4 Inhibitor I 0.026 | ibrutinib 0.031 | [9] -0.122 | ralimetinib 0.026 | [10] -0.145 | [11] 0.066 | [12] 0 | [13] -0.076 | [14] -0.179 | [15] 0.111 | [16] -0.008

PNPO (UniProt Q9NVS9)
inactive: erlotinib 0.035 | [1] -0.005 | [2] 0.011 | [3] -0.026 | [4] 0.01 | [5] -0.013 | [6] 0.146 | [7] 0.054 | [8] -0.099 | IRAK-1-4 Inhibitor I 0.012 | ibrutinib 0.056 | [9] -0.004 | ralimetinib -0.033 | [10] 0.019 | [11] 0.022 | [12] 0.034 | [13] 0.081 | [14] -0.025 | [15] -0.034 | [16] -0.003

PPAN isoform 3 (UniProt Q9NQ55)
inactive: erlotinib -0.012 | [1] -0.112 | [2] -0.008 | [3] 0.006 | [4] -0.009 | [5] -0.001 | [6] 0.032 | [7] -0.056 | [8] 0 | IRAK-1-4 Inhibitor I 0.019 | ibrutinib -0.002 | [9] 0.01 | ralimetinib 0.008 | [10] 0.017 | [11] -0.004 | [12] 0.047 | [13] -0.041 | [14] 0.028 | [15] -0.001 | [16] 0.006

PMPCB (UniProt O75439)
inactive: erlotinib -0.034 | [1] 0.013 | [2] -0.016 | [3] 0.032 | [4] 0.029 | [5] -0.088 | [6] -0.03 | [7] -0.01 | [8] 0.003 | IRAK-1-4 Inhibitor I 0 | ibrutinib 0.025 | [9] -0.005 | ralimetinib 0.012 | [10] -0.029 | [11] 0 | [12] -0.026 | [13] 0.021 | [14] 0.001 | [15] 0.012 | [16] 0.013

PNKP (UniProt Q96T60)
inactive: erlotinib -0.187 | [1] 0.02 | [2] 0.083 | [3] 0.082 | [4] -0.06 | [5] -0.011 | [6] -0.035 | [7] -0.009 | [8] 0.039 | IRAK-1-4 Inhibitor I -0.018 | ibrutinib -0.009 | [9] -0.031 | ralimetinib -0.015 | [10] -0.035 | [11] -0.34 | [12] -0.022 | [13] 0.001 | [14] -0.016 | [15] 0.159 | [16] -0.051

Fetched one by one from the list above (two):
PMPCB (UniProt O75439)
inactive: erlotinib -0.034 | [1] 0.013 | [2] -0.016 | [3] 0.032 | [4] 0.029 | [5] -0.088 | [6] -0.03 | [7] -0.01 | [8] 0.003 | IRAK-1-4 Inhibitor I 0 | ibrutinib 0.025 | [9] -0.005 | ralimetinib 0.012 | [10] -0.029 | [11] 0 | [12] -0.026 | [13] 0.021 | [14] 0.001 | [15] 0.012 | [16] 0.013

PNPO (UniProt Q9NVS9)
inactive: erlotinib 0.035 | [1] -0.005 | [2] 0.011 | [3] -0.026 | [4] 0.01 | [5] -0.013 | [6] 0.146 | [7] 0.054 | [8] -0.099 | IRAK-1-4 Inhibitor I 0.012 | ibrutinib 0.056 | [9] -0.004 | ralimetinib -0.033 | [10] 0.019 | [11] 0.022 | [12] 0.034 | [13] 0.081 | [14] -0.025 | [15] -0.034 | [16] -0.003

(list continues)

PLIN3 (UniProt O60664)
inactive: erlotinib -0.021 | [1] -0.013 | [2] 0.017 | [3] 0.014 | [4] -0.017 | [5] 0.011 | [6] 0.047 | [7] 0.029 | [8] -0.01 | IRAK-1-4 Inhibitor I 0.014 | ibrutinib 0.011 | [9] 0.022 | ralimetinib 0 | [10] 0.029 | [11] 0.006 | [12] -0.012 | [13] 0.025 | [14] 0.003 | [15] -0.004 | [16] 0.016

PMM2 (UniProt O15305)
inactive: erlotinib -0.063 | [1] 0.043 | [2] -0.041 | [3] -0.015 | [4] 0.05 | [5] 0.016 | [6] 0.011 | [7] 0.017 | [8] -0.002 | IRAK-1-4 Inhibitor I -0.052 | ibrutinib -0.007 | [9] 0.021 | ralimetinib 0.01 | [10] 0.035 | [11] -0.006 | [12] -0.013 | [13] 0 | [14] -0.017 | [15] 0.016 | [16] 0.035

PNPLA6 (UniProt Q8IY17)
inactive: erlotinib 0.197 | [1] 0.207 | [2] 0.048 | [3] -0.032 | [4] -0.055 | [5] -0.257 | [6] -0.092 | [7] 0.11 | [8] 0.009 | IRAK-1-4 Inhibitor I 0.108 | ibrutinib 0.274 | [9] -0.014 | ralimetinib 0.023 | [10] -0.07 | [11] -0.119 | [12] 0.088 | [13] 0.103 | [14] -0.044 | [15] -0.044 | [16] -0.035

— the supplement of paper PMC10849652
